Laboratory results from PubChem BioAssay AID493014 (National Center for Advancing Translational Sciences (NCATS), 2011).
The campaign covered roughly 340,000 compounds. About 170 (0.05%) were called active. The shares of active, inactive and inconclusive entries below differ from those in the screen. Calls follow the shape of the dose curve; as a rule, active = well fitted inhibition curve with a large enough effect in the signal ratio, with a control signal flat (not every such curve was filed as active); inconclusive = small, poorly fitted or top-dose-only effect, or effect the other way, or a change in a side signal; inactive = flat fitted curve, though single readings scatter; the % refers to the signal ratio. Where the call is inconclusive, the potency comes from a doubtful curve fit.

Assay: qHTS Assay to Find Inhibitors of Chronic Active B-Cell Receptor Signaling;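 as to activity change, negative = inhibition: plate controls were basal doxycycline-induced cells for no effect and cells given 10 µM MG132 for full effect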
Conditions: ABC-DLBCL IkBa-CBG/CBR reporter, luminescence ratio (green luciferase fused to IkBa over red control in TMD8 lymphoma cells), 4 h; activity change, negative = inhibition: at 46.1 µM (top of the series) unless noted
How it was run: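 Doxycycline induced both beetle luciferases in TMD8 lymphoma cells; IKK-driven degradation limits the IkappaBalpha-fused green signal, while red luminescence normalises for cell number and nonspecific effects. Compounds tested up to 46 uM, 4 hrs.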
Potency is read from the fitted curve at half-maximal effect.

Structure (SMILES) | activity change, negative = inhibition | Potency
CS(=O)(=O)c1ccc2nc(NC(=O)c3ccc(NS(=O)(=O)c4cccc([N+](=O)[O-])c4)cc3)sc2c1 | inconclusive: -9.01% | 
CCN(CC)c1ccc2cc(C#N)c(=O)oc2c1 | inactive: -10.3% | 
O=C(Nc1cccc(S(=O)(=O)N2CCCC2)c1)c1cncc(Br)c1 | inconclusive: -0.362% | 
COC(=O)c1sc(-c2ccc(C(C)(C)C)cc2)cc1NC(=O)CCC(=O)O |  | inconclusive: 35.5 µM [falling, single point]
Cc1cc(C(=O)NNC(=O)c2c(-c3c(Cl)cccc3Cl)noc2C)no1 | inactive: -0.981% | 
O=S(=O)(Nc1ccccc1Cl)c1ccc(NS(=O)(=O)c2cccs2)cc1 | inactive: 0.758% | 
COc1cc(OC)c2c(-c3cccc(-c4ccc(OC)c(OC)c4)c3)cc(=O)oc2c1 | inconclusive: -3.98% | 
Cc1nnc(NC(=O)Cn2c(=O)sc3ccccc32)s1 | inconclusive: 27.7% | 
Cc1ccc(OCCCc2c(C)n[nH]c2C)cc1 | inconclusive: 3.26% | 
CCC(C(=O)NCCCN1CC(C)CC(C)C1)n1nc(C)c2sc3ccccc3c2c1=O (configuration not stated) | inactive: -14.5% | 
CS(=O)(=O)c1ccc(Cl)c(NC(=O)c2cccc(N3C(=O)CCC3=O)c2)c1 | inconclusive: 12.4% | 
COCCNC(=O)COc1ccc(C)cc1C |  | inconclusive: 1.03 µM [rising, full curve]
Cc1nnc(N/N=C\c2ccc(-c3cccc(C(=O)O)c3)o2)n1N |  | inconclusive: 31.6 µM [falling, single point]
Cc1nc(-c2cccc(NC(=O)c3ccc(Br)o3)c2)cs1 | inconclusive: -1.93% | 
COc1ccc(C(=O)NNC(=O)Cc2nc3ccccc3n2C)cc1 | inconclusive: 0.685% | 
CCCCCn1c(C)c2c(OCC)cccc(=O)c2c1C | inconclusive: 3.04% | 
COc1ccc(C(=O)Nc2ccc(S(=O)(=O)NC(C)C)cc2)cc1 | inconclusive: 10.5% | 
Cc1ccc(NC(=O)c2sc3nc(N)c(C#N)cc3c2N)cc1 | inconclusive: 2.96% | 
Brc1ccc(-c2cn3ccccc3n2)s1 |  | inconclusive: 0.517 µM [rising, full curve, poor fit]
C/C(=N\NC(=O)c1cccc(Br)c1)c1cccc(NC(=O)c2ccc(C)o2)c1 | inconclusive: -61.7% | 
CC1=CC(=O)C=C(C)C1=NOC(=O)/C=C\c1ccccc1 | inconclusive: -13.6% | 

Quoted from the listing:
Entry of `COCCNC(=O)COc1ccc(C)cc1C` under Potency: inconclusive: 1.03 µM [rising, full curve]
Entry of `O=S(=O)(Nc1ccccc1Cl)c1ccc(NS(=O)(=O)c2cccs2)cc1` under activity change, negative = inhibition: inactive: 0.758%
Entry of `Cc1nc(-c2cccc(NC(=O)c3ccc(Br)o3)c2)cs1` under activity change, negative = inhibition: inconclusive: -1.93%

Additional records follow.

Structure (SMILES) | activity change, negative = inhibition | Potency
COC(=O)CC1=C(C(=O)OC)C(c2cc(OC)c(OC)cc2OC)C(C#N)=C(N)O1 (configuration not stated) |  | inconclusive: 20.6 µM [falling, partial curve, poor fit]
CC1CC(C)CN(C(=O)c2ccc(NS(=O)(=O)c3ccc4[nH]c(=O)[nH]c4c3)cc2)C1 (configuration not stated) | inactive: 1.31% | 
O=C(Nc1ncc2c(n1)-c1ccccc1OC2)c1cccc([N+](=O)[O-])c1 |  | inconclusive: 3.98 µM [falling, partial curve]
CC(C)(C)OC(=O)N1CCN(C(=O)c2ncn(Cc3ccccc3)c2C(=O)N2CCN(C(=O)OC(C)(C)C)CC2)CC1 | inconclusive: 3.56% | 
Cc1cc(N2CCN(c3ccccn3)CC2)n2cc(-c3ccccc3)nc2n1 | inconclusive: -7.04% | 
O=C(CSc1ncccc1C(=O)O)c1ccccc1F |  | inconclusive: 6.31 µM [rising, partial curve, poor fit]
COc1ccc(C2=Nn3c(nnc3-c3ccco3)SC2)cc1 |  | inconclusive: 23.1 µM [falling, partial curve]
CCOC(=O)N1CCC(=NNC(=O)COc2ccc(OC)cc2)CC1 | inconclusive: -14.5% | 
O=C(NCCc1ccncc1)Nc1ccccc1Cl | inconclusive: -15.4% | 
CC(C)(C)c1cc(=O)[nH]c(SCc2ccccc2Cl)n1 | inconclusive: -15.2% | 
COC(=O)c1ccc(OCC(O)CN(CCO)CC(O)Cn2ccc3ccccc32)cc1 (configuration not stated) |  | inconclusive: 32.6 µM [falling, partial curve, poor fit]
COc1ccc(NC(=O)N2CCN(c3nc(-c4cccc(OC)c4)cs3)CC2)cc1 |  | inconclusive: 16.4 µM [falling, single point]
COc1ccc(CCNC(=O)Nc2cc(F)c(F)cc2Cl)cc1OC | inconclusive: -2.34% | 
CC(=O)Nc1ccc(NC(=O)C(C)OC(=O)C2CC(=O)N(CCc3ccccc3)C2)cc1 (configuration not stated) | inconclusive: 0.644% | 
O=C(Nc1cc(Cl)ccc1O)C1CCCO1 (configuration not stated) | inconclusive: 1.28% | 
O=C(Nc1cccc(O)c1)c1noc2c1CCCCC2 |  | inconclusive: 20.6 µM [falling, partial curve]
Cc1nc2cc(NC(=O)c3ccc(Br)s3)ccc2s1 | inconclusive: -13.5% | 
Cc1ccc(C(=O)c2sc(Nc3ccccc3)c(C#N)c2N)cc1 | inconclusive: -0.255% | 
CC(C)(C)C1=CC(=O)C(=O)C(C(C)(C)C)=C1 |  | inconclusive: 23.1 µM [falling, partial curve, poor fit]
CC[C@@H]1C(c2ccccc2)=NN(c2ccccc2)[C@H]1C(=O)N1CCOC1=O |  | inconclusive: 2.59 µM [falling, partial curve, poor fit]
O=C(Nc1cccc(C(F)(F)F)c1)c1cc2ncc(Br)cn2n1 | inactive: 23.8% | 

Structure (SMILES) | activity change, negative = inhibition | Potency
COC(=O)c1c(NC(=O)c2ccccc2OC)sc(C(=O)N2CCOCC2)c1C |  | inconclusive: 35.5 µM [rising, single point]
Cc1c(NS(=O)(=O)c2cc(C(=O)NCCN(C)C)ccc2Cl)c(=O)n(-c2ccccc2)n1C | inconclusive: 3.66% | 
COc1c(C)cc(Br)cc1C(=O)Nc1ccc(Cc2ccncc2)cc1 | inconclusive: -9.07% | 
O=C(O)c1cccc(S(=O)(=O)NCC2COc3ccccc3O2)c1 (configuration not stated) | inactive: -3.42% | 
CCOc1cc(/C=C(/C#N)c2nc3ccccc3[nH]2)ccc1OCc1ccc(C(=O)O)o1 | inconclusive: 0.908% | 
O=C(CCNC(=O)C1CCN(S(=O)(=O)c2ccccc2)CC1)NCc1ccc(Cl)cc1Cl | inactive: -0.503% | 
Clc1ccc2c(N3CCOCC3)ccnc2c1 | inconclusive: 0.0499% | 
Cc1ccc(Nc2c([N+](=O)[O-])c(=O)oc3ccccc23)cc1C |  | inconclusive: 35.5 µM [falling, partial curve, poor fit]
CC1CN(C(=O)CCNC(=O)c2ccccc2Cl)CC(C)O1 (configuration not stated) | inactive: 7.86% | 
C/C=C\C=C/C(=O)Nc1cccc(C2=NOC3(C2)C[C@@H](C(N)=O)N(C(=O)/C=C/CC)C3)c1 (some centres not stated) | inconclusive: -15.5% | 
O=C(OCc1c(-c2ccccc2)ncc2ccccc12)N1CCOCC1 | inconclusive: -12% | 
O=C(NCC(c1cccs1)N1CCOCC1)c1ccc(OCc2ccccc2)cc1 (configuration not stated) | inactive: 7.3% | 
COc1ccc2nc(NC(=O)c3cnccn3)sc2c1 |  | inconclusive: 18.4 µM [falling, partial curve]
COc1ccc(N(CC(=O)Nc2ccc3c(c2)OCCO3)S(=O)(=O)c2c(C)nn(C)c2C)cc1 | inconclusive: -1.85% | 
COc1cccc(NC(=O)CSc2nc3c(c(=O)n2C)SC(C)C3)c1 (configuration not stated) | inconclusive: -4.33% | 
C=CCn1c(C2CC2)n[nH]c1=S | inactive: -2.66% | 
CCc1nc(N)c(C#N)c(-c2ccc(F)cc2)c1C | inconclusive: -1.15% | 
O=C1Nc2ccccc2Oc2cc(Oc3ccc(Cl)cc3)ccc21 | inconclusive: 18.5% | 
CCOc1ccc(S(=O)(=O)Nc2cccc(C(=O)NCC(C)(C)N3CCOCC3)c2)cc1 | inactive: 6.65% | 
O=C(CN1N=C(c2ccc(Cl)cc2)CCC1=O)NCc1ccc(F)cc1 | inconclusive: -17.3% | 
Cc1ccsc1C(=O)NNC(=O)c1ccncc1 |  | inconclusive: 23.1 µM [falling, single point]

Structure (SMILES) | activity change, negative = inhibition | Potency
COc1ccc(C(C)=O)cc1CN1CCCCC1 | inactive: -5.6% | 
O=C(c1c[nH]c2ccccc12)C(F)(F)F | inconclusive: 0.11% | 
CCN(Cc1ccccc1)S(=O)(=O)c1ccc(C(=O)Nc2nnc(C)o2)cc1 | inconclusive: -2.13% | 
COc1ccc(OCC(=O)N(C)CC2COc3ccccc3O2)cc1 (configuration not stated) | inactive: -8.72% | 
CCc1ccc(N(C(=O)c2snc(C(N)=O)c2N)C(C(=O)NC2CCCC2)c2ccncc2)cc1 (configuration not stated) | inactive: -5.4% | 
Cc1ccc(Nc2nc3ccccc3c(=O)[nH]2)cc1C | inactive: 20.8% | 
COCCn1c(SCC(=O)c2c(N)n(C3CC3)c(=O)[nH]c2=O)nc2ccccc21 | inactive: -0.339% | 
O=C(CSc1nnnn1-c1ccc(O)cc1)Nc1cccc(S(=O)(=O)N2CCCC2)c1 |  | inconclusive: 18.4 µM [falling, partial curve]
CC(=O)c1ccc(COC(=O)c2cc3ccccc3oc2=O)cc1 | inconclusive: 16.4% | 
CC1=C(C)/C(=N\OS(=O)(=O)c2ccc(C)cc2)C=CC1=O | inconclusive: 11.7% | 
CCOc1ccc(C(=O)CSCCC(=O)O)cc1 |  | inconclusive: 2.24 µM [falling, full curve, poor fit]
COc1ccccc1NC(=O)Cc1csc(NC(=S)Nc2ccc(C)cc2)n1 | inconclusive: -25% | 
CNC(=S)NNC(=O)COc1ccccc1C | inactive: -3.31% | 
CC1(C)C(C=C(Cl)Cl)C1C(=O)N(Cc1ccc(Cl)cc1)C1CCS(=O)(=O)C1 (configuration not stated) | inconclusive: -8.65% | 
O=C(NC(=S)Nc1ncccn1)c1ccccc1Br |  | inconclusive: 10 µM [falling, partial curve]
O=C(COC(=O)c1ccc(F)cc1Cl)NC(=O)NC1CCCC1 | inactive: -7.09% | 
CCCCSC1=C(C#N)C(c2ccccc2C)CC(=O)N1 (configuration not stated) | inactive: 10.6% | 
CCc1ccc(NC(=O)c2ccc(F)c(S(=O)(=O)NCC3COc4ccccc4O3)c2)cc1 (configuration not stated) |  | inconclusive: 8.2 µM [falling, partial curve]
CN1C(C(=O)Nc2ccc(F)cc2F)=CC(c2cccs2)=NS1(=O)=O |  | inconclusive: 15.8 µM [falling, partial curve]
